No constants are given. Whether binding was seen depends on the method and setting. Binding seen in cells or lysates may run through a third protein. Some entries that bind do so weakly or less than the wild type. Tags and fused reporters may be left off the sequences shown.
Target: T1, hFSHR C-terminally fused with donor Rluc8 (human) (UniProt P23945)
T1 sequence: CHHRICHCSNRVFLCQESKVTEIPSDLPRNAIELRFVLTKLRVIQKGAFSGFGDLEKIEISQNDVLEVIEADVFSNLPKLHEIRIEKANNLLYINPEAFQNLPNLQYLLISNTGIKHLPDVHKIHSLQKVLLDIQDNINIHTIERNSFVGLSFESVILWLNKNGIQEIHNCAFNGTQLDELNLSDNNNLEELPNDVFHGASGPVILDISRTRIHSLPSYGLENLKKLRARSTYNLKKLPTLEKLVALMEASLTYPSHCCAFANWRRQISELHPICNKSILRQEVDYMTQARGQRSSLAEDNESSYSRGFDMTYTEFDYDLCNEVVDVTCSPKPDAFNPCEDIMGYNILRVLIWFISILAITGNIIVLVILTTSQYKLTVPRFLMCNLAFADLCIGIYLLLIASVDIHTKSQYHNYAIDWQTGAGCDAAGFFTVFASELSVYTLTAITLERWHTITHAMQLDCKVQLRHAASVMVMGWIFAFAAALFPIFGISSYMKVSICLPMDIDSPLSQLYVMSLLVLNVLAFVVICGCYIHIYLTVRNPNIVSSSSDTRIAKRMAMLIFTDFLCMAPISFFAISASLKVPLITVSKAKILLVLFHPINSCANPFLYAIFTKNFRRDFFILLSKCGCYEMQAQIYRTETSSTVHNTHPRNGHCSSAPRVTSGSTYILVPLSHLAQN
Experiment: FRET or BRET; living HEK293 cells co-transfected with FSHR-Rluc8 and NES-Venus-mGs or YPET-β-arrestin-2; stimulated with FSH (10^-9.5 to 10^-6.5 M) with or without 1 µM PRC1-Hinge-Fc or NR control-Hinge-Fc; 5 µM coelenterazine-H; read every 60 s for about 60 min

The chains behind the UniProt entries cited, without tags or fusion partners.
UniProt P32121: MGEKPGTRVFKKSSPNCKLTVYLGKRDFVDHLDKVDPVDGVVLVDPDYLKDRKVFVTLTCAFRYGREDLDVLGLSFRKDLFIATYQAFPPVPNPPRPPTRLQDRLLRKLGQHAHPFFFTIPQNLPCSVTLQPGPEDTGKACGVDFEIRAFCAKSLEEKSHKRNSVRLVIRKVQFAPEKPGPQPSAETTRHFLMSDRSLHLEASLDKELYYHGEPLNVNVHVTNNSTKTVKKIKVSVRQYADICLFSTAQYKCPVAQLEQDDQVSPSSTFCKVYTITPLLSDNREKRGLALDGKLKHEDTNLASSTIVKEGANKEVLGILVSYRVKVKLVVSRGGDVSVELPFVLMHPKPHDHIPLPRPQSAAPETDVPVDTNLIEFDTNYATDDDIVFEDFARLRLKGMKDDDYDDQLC

Substance: β-arrestin-2 N-terminally fused to a YPET BRET acceptor (from UniProt P32121 1-409)
- binding: binds

From article PMC10650796
